In article PMC3744076:
No constants are given. Whether binding was seen depends on the method and setting. In cells and extracts the contact can be indirect. Some results given as binding are weak or reduced against the parent protein; the word gives no strength.

Sequences of proteins named here, by UniProt entry; tags and fusion partners are left off. A change or cut given only in a name is not applied to a line headed by its entry.
UniProt Q15393: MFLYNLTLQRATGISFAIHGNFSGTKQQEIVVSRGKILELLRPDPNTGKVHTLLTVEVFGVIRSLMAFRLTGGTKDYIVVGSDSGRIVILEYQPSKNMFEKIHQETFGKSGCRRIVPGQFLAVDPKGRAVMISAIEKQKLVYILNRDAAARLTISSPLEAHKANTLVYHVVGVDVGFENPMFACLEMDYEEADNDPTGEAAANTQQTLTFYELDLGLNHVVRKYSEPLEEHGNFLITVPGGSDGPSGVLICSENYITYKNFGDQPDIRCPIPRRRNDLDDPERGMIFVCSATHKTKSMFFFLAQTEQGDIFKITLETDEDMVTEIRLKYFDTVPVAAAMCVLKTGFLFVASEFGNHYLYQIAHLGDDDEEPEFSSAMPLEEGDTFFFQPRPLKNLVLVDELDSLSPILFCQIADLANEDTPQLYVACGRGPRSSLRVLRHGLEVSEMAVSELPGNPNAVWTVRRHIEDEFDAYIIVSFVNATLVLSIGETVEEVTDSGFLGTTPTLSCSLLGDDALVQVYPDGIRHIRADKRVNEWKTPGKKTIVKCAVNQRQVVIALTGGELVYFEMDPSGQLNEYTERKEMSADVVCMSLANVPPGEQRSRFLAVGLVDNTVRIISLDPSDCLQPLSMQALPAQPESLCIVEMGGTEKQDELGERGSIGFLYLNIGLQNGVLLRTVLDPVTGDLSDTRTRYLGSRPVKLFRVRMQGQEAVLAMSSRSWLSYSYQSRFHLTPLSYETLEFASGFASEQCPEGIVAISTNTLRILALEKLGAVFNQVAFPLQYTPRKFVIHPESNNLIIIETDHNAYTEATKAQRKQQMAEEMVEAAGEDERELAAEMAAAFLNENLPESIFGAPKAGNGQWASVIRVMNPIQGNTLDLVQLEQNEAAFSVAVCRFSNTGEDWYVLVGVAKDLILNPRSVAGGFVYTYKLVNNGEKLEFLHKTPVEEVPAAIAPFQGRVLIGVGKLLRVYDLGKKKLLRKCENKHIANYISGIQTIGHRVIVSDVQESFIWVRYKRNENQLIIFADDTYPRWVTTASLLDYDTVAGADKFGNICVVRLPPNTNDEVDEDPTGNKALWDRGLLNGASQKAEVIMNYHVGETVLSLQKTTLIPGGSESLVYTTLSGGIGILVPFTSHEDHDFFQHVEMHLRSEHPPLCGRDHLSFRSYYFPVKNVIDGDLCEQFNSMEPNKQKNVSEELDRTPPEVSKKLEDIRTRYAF
UniProt Q13617: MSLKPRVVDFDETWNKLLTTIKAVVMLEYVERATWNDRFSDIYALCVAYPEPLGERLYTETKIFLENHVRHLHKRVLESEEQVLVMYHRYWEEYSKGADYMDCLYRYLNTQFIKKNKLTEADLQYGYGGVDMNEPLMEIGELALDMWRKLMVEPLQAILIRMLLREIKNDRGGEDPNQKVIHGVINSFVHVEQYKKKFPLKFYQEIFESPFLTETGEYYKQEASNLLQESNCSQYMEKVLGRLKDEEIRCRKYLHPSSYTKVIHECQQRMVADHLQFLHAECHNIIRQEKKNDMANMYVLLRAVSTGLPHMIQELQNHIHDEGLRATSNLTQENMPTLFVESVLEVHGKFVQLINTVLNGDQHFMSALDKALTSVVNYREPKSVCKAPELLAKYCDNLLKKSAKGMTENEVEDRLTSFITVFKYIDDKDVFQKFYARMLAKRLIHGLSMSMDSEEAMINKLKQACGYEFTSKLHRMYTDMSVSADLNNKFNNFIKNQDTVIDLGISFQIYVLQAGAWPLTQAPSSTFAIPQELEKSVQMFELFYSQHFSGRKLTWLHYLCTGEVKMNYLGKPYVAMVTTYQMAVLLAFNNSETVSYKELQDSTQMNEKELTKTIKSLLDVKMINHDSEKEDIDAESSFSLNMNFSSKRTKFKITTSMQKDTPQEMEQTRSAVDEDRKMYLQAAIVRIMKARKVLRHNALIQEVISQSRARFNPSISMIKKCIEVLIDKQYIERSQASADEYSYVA
UniProt Q13616: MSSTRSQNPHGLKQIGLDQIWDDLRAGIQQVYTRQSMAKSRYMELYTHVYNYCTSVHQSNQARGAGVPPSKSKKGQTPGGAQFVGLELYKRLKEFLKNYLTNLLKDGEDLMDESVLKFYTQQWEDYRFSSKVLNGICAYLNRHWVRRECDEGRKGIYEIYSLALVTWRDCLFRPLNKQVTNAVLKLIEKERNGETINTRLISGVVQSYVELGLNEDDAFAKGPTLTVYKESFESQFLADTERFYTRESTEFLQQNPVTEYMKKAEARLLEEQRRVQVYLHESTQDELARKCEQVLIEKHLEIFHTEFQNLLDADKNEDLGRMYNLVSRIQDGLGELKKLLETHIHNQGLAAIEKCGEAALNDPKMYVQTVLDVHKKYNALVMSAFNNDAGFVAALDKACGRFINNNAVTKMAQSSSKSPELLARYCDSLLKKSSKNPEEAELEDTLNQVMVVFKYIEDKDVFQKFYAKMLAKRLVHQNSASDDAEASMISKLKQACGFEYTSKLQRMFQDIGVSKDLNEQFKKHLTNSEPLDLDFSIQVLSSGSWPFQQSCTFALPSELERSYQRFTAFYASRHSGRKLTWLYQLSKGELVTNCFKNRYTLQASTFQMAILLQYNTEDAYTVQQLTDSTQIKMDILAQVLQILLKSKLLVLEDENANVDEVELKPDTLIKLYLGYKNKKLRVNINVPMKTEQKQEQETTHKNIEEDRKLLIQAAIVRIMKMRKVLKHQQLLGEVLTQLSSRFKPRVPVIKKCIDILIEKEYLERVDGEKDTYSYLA
UniProt P63208: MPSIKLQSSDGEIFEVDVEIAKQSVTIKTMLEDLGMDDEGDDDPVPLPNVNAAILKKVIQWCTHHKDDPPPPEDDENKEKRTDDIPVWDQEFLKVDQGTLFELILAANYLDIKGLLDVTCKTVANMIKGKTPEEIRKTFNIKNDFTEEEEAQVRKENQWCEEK

Key:
SAP130-HA = SAP130-HA (UniProt Q15393); experiment: co-IP; lysates of transfected HEK293T cells on beads with anti-HA antibody, 4°C for 2 hours, washed with NP40 lysis buffer (20 mM Tris pH 7.5, 50 mM NaCl, 0.5 mM EDTA, 5% glycerol, 0.5% NP40); Western blot (V5 or Skp2 antibody); SAP130-HA as bait
Cul2-FLAG = Cul2-FLAG (UniProt Q13617); experiment: co-IP; lysates of transfected HEK293T cells on anti-FLAG M2 agarose beads, 4°C for 2 hours, washed with NP40 lysis buffer (20 mM Tris pH 7.5, 50 mM NaCl, 0.5 mM EDTA, 5% glycerol, 0.5% NP40); Western blot; FLAG-tagged cullin as bait; with or without overexpressed SAP130
Cul3-FLAG = Cul3-FLAG (UniProt Q13618); experiment: as above
Cul1-FLAG wild-type = Cul1-FLAG wild-type (UniProt Q13616); experiment: as above
Cul1-FLAG K720R = Cul1-FLAG K720R (UniProt Q13616); experiment: as above

Substance | binding (SAP130-HA) | binding (Cul1-FLAG wild-type) | also measured
K472E/R473E Cul1^Nedd8 (from UniProt Q13616 1-776; Q15843 1-76) (complex) | binds |  | 
SAP130-HA (from UniProt Q15393 1-1217) |  | binds | binding (Cul2-FLAG): binds; binding (Cul3-FLAG): binds
Skp1-V5 (from UniProt P63208 1-163) | binds weakly |  | 
Spliceosome-associated protein 130 (SAP130) (from UniProt Q15393 1-1217) |  | binds | binding (Cul1-FLAG K720R): binds
neddylated Cul1-V5 (wild-type Cul1^Nedd8) (from UniProt Q13616 1-776; Q15843 1-76) (complex) | binds |  | 
